Source: PMC8041851

Target: GFP-Hakai-S (short isoform) (Drosophila)
Test: co-IP; myc-GFP, GFP-Hakai or GFP-Hakai-S transfected into S2 cells; lysate precipitated with anti-GFP nanobody agarose beads; endogenous Fl(2)d detected by western blot with anti-Fl(2)d (9G2)

binding: binds
B1: endogenous Fl(2)d protein (protein, UniProt Q9Y091 1-536)
chain: MSVAAMTMDDQRPCMNSYDKMPPTKYEQNLNILNSSQNSGATGGPASPTPSGLEDHHHHHHPHPHHHHHQEQQQQQQQQQHLQQQQQQQQQQHAAAVAEAVAAAEQRQRLLEDEIENLKLEQVRMAQQCADAQRREKILMRRLANKEQEFQDYVSQIAEYKAQQAPTALALRTALLDPAVNLLFERLKKELKATKAKLEETQNELSAWKFTPDSNTGKRLMAKCRLLYQENEELGKMTSNGRLAKLETELAMQKSFSEEVKKSQSELDDFLQELDEDVEGMQSTILFLQQELKTTRDRIQTLEKENAQLKQAIKDEVVAPAAATNGGTNTTINKLETIHEDACMANNPTNPDCYNGNTNNEQIAAVPQIPLSDDGSNMNGNAARLARKRNYQEEEALPTVVVVPTPTPVGNNVQEAPPIREVTAPRTLPPKKSKLRGITTRRNSQLEEDHQPVTTPVAVPMIVDNAVAGMASEEAAAAAAAVNNSNTGIIPETGVQVGVPVEGGDPGAPAAPGRILTRRRSVRMQQNGSGAVDYST

Results are given in words; binding and its absence hold for the method and conditions named. Binding seen in cells or lysates may run through a third protein. Binding can be weak; no strength is given.
